PubChem BioAssay AID743458 – Peter MacCallum Cancer Centre – 2014
In all, the deposit lists about 1,800 reagents; below is an unselected part. 732 of all reagents (41%) were called active. 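Calls are per siRNA reagent; a gene was deemed confirmed only if most of its four siRNAs scored.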 Entries without a mark were called inactive. The numbers tell different reagents against one gene apart.

Purpose: 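Identify genes whose loss lifts vorinostat resistance in colon cancer cells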 (follow-up of hits)
Cells: human HCT116-VR colon cancer cells made resistant to vorinostat
Reagents: single siRNA or pool against human genes, 25 nM per single siRNA
Duration: about 72 h after transfection, including 24 h of drug
Challenge: vorinostat, 2.5 µM final, for 24 h
Read-out: 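Cell viability by fluorescence and apoptosis by caspase 3/7 luminescence under vorinostat, background-corrected, averaged across two plate copies and given as fold change versus mock transfection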
Reading the numbers: viability relative to mock: higher = more living cells than mock; caspase activity relative to mock: higher = more apoptosis than mock
Hit rule: 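An siRNA counts as active if classed as reduced viability or as caspase activation, otherwise inactive; a hit class needed wells that remained healthy in the absence of drug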

gene knocked down | reagent no. | viability relative to mock | caspase activity relative to mock | viability hit class | caspase hit class
INPP5K | 1 | 1.09 | 2 | no change | no change
INPP5K | 2 | 0.52 (active) | 2.8 | reduced viability | caspase activation
INPP5K | 3 | 0.91 | 1.44 | no change | no change
INPP5K | 4 | 1.07 | 1.83 | no change | no change
RGS18 | 1 | 0.94 (active) | 3.97 | no change | caspase activation
RGS18 | 2 | 0.64 (active) | 5.42 | no change | caspase activation
RGS18 | 3 | 0.85 | 1.52 | no change | no change
RGS18 | 4 | 0.68 (active) | 3.14 | no change | caspase activation
EIF1AX | 1 | 0.6 | 1 | no change | no change
EIF1AX | 2 | 0.44 (active) | 1.46 | reduced viability | no change
EIF1AX | 3 | 0.5 (active) | 1.31 | reduced viability | no change
EIF1AX | 4 | 0.51 (active) | 1.12 | reduced viability | no change
CWC22 | 1 | 0.49 (active) | 2.56 | reduced viability | no change
CWC22 | 2 | 0.38 (active) | 1.44 | reduced viability | no change
CWC22 | 3 | 0.44 (active) | 2.1 | reduced viability | no change
CWC22 | 4 | 0.34 (active) | 2.37 | reduced viability | no change
QSOX1 | 1 | 0.99 | 1.79 | no change | no change
QSOX1 | 2 | 0.72 | 1.68 | no change | no change
QSOX1 | 3 | 0.58 (active) | 4.41 | no change | caspase activation
QSOX1 | 4 | 0.56 (active) | 3.97 | reduced viability | caspase activation
SC5D | 1 | 0.94 | 1.43 | no change | no change
SC5D | 2 | 0.54 (active) | 3.45 | reduced viability | caspase activation
SC5D | 3 | 0.51 (active) | 3.2 | reduced viability | caspase activation
SC5D | 4 | 0.69 | 0.84 | no change | no change
AVP | 1 | 0.36 (active) | 0.88 | reduced viability | no change
AVP | 2 | 0.62 | 1.42 | no change | no change
AVP | 3 | 0.4 (active) | 0.74 | reduced viability | no change
AVP | 4 | 1.05 | 2.51 | no change | no change
VPS4A | 1 | 0.97 | 1.27 | no change | no change
VPS4A | 2 | 0.76 (active) | 2.58 | no change | caspase activation
VPS4A | 3 | 0.6 | 2.23 | no change | no change
VPS4A | 4 | 0.28 (active) | 3.48 | reduced viability | caspase activation
COL11A2 | 1 | 0.26 (active) | 3.58 | reduced viability | caspase activation
COL11A2 | 2 | 0.48 (active) | 5.59 | reduced viability | caspase activation
COL11A2 | 3 | 0.66 | 0.81 | no change | no change
COL11A2 | 4 | 0.8 | 1.85 | no change | no change
AVEN | 1 | 0.7 | 1.85 | no change | no change
AVEN | 2 | 0.86 | 1.31 | no change | no change
AVEN | 3 | 1.08 (active) | 3.25 | no change | caspase activation
AVEN | 4 | 0.8 | 1.08 | no change | no change
NEO1 | 1 | 0.29 (active) | 1.39 | reduced viability | no change
NEO1 | 2 | 0.96 | 1.12 | no change | no change
NEO1 | 3 | 0.94 | 1.32 | no change | no change
NEO1 | 4 | 1.02 | 1.01 | no change | no change

Just “caspase hit class”, for 6 of the entries above:
INPP5K #4: no change
RGS18 #1: caspase activation (active)
RGS18 #2: caspase activation (active)
RGS18 #3: no change
RGS18 #4: caspase activation (active)
EIF1AX #1: no change

Additional reagents:
gene knocked down | reagent no. | viability relative to mock | caspase activity relative to mock | viability hit class | caspase hit class
MT3 | 1 | 0.45 (active) | 4.46 | reduced viability | caspase activation
MT3 | 2 | 0.98 | 1.37 | no change | no change
MT3 | 3 | 0.76 | 1.09 | no change | no change
MT3 | 4 | 0.54 (active) | 1.78 | reduced viability | no change
DDX19B | 1 | 0.4 (active) | 3.84 | reduced viability | caspase activation
DDX19B | 2 | 0.34 (active) | 3.3 | reduced viability | caspase activation
DDX19B | 3 | 0.56 (active) | 5.08 | reduced viability | caspase activation
DDX19B | 4 | 0.28 (active) | 4.03 | reduced viability | caspase activation
AIFM2 | 1 | 0.11 | 2.06 | no change | no change
AIFM2 | 2 | 0.58 | 2.1 | no change | no change
AIFM2 | 3 | 0.82 | 1.77 | no change | no change
AIFM2 | 4 | 0.71 | 2.05 | no change | no change
ARSA | 1 | 0.94 | 2.55 | no change | no change
ARSA | 2 | 0.58 (active) | 3.05 | no change | caspase activation
ARSA | 3 | 0.88 | 1.1 | no change | no change
ARSA | 4 | 0.23 | 3.17 | no change | no change
SMR3B | 1 | 0.51 (active) | 2.54 | reduced viability | no change
SMR3B | 2 | 0.68 (active) | 5.33 | no change | caspase activation
SMR3B | 3 | 0.56 | 1.34 | no change | no change
SMR3B | 4 | 0.86 | 1.04 | no change | no change
SLC60A1 | 1 | 1.13 | 1.3 | no change | no change
SLC60A1 | 2 | 0.89 | 1.66 | no change | no change
SLC60A1 | 3 | 0.96 | 2.11 | no change | no change
SLC60A1 | 4 | 0.86 | 1.71 | no change | no change
RPL7L1 | 1 | 0.73 | 2.17 | no change | no change
RPL7L1 | 2 | 0.55 (active) | 1.73 | reduced viability | no change
RPL7L1 | 3 | 0.2 | 1.8 | no change | no change
RPL7L1 | 4 | 0.25 | 2.01 | no change | no change
KLHDC3 | 1 | 0.68 (active) | 7.24 | no change | caspase activation
KLHDC3 | 2 | 0.93 | 1.03 | no change | no change
KLHDC3 | 3 | 0.85 | 2.78 | no change | no change
KLHDC3 | 4 | 0.76 | 1.68 | no change | no change
